Results taken from patent US10730875B2, “Substituted imidazo[1,2-A]pyridin-2-ylamine compounds, and pharmaceutical compositions and methods of use thereof” (JN Therapeutics, priority 2015, dated 2020).
For at least one compound, name, drawing or mass did not settle the structure.

Legend:
[1] = test system: human Janus kinase 3 (JAK3), recombinant catalytic domain; assay: LanthaScreen TR-FRET enzymatic assay, JAK3; format: biochemical; settings: ratio of IC50 against JAK3 over IC50 against JAK1
Procedure: (§1) The in vitro inhibition of recombinant human JAKs was determined as follow.
(§2) Compounds were tested in LANTHASCREEN™ time-resolved fluorescence energy transfer (TR-FRET) enzymatic assays from Invitrogen. The human Janus kinase 1 (JAK1) used in the assay is the recombinant JAK1 catalytic domain (amino acids 866-1154) expressed and purified from insect cells (Invitrogen, Cat. No. PV4774). The human Janus kinase 2 (JAK2) used in the assay is the recombinant JAK2 catalytic domain (amino acids 808-1132) expressed and purified from insect cells (Invitrogen, Cat. No. PV4210). […] The substrate is a recombinant STAT1 expressed as a fusion with GFP (Green Fluorescent Protein) to act as a physiological substrate (Invitrogen, Cat. No. PV5211).
(§3) Test compounds were prepared and diluted in DMSO in 3-fold serial dilutions for 10 doses to 100× of the final testing concentrations. […] After 30 minutes of incubation at room temperature, the plate was read in Tecan Infinite F200 Pro with the following settings: Excitation 340 nm (30)/Emission1 495 nm (10)/Emission2 520 nm (25). The TR-FRET values were dimensionless numbers that were calculated as the ratio of the acceptor ([…]) signal to the donor (Terbium) signal. Percent of inhibition was calculated as (100%−percentage of compound-treated/DMSO vehicle-treated). […]

[2] = test system: human tyrosine kinase 2 (TYK2), recombinant catalytic domain; assay: LanthaScreen TR-FRET enzymatic assay, TYK2; format: biochemical; settings: ratio of IC50 against TYK2 over IC50 against JAK1
Procedure: as §1, §2, §3

N#CC1(c2ccc(-c3cccc4nc(NC(=O)C5CC5)cn34)cc2)CC1 [Compound 22]
Selectivity JAK3/JAK1 [1]: A′ (A′ represents a ratio of greater than 8)
Selectivity TYK2/JAK1 [2]: A′ (A′ represents a ratio of greater than 8)
